This is an account of results in the supplement of paper PMC10032668.

Amino acid sequences for entries named in this document (tags omitted).
CLPP, Q16740, UniProt Q16740, whole entry: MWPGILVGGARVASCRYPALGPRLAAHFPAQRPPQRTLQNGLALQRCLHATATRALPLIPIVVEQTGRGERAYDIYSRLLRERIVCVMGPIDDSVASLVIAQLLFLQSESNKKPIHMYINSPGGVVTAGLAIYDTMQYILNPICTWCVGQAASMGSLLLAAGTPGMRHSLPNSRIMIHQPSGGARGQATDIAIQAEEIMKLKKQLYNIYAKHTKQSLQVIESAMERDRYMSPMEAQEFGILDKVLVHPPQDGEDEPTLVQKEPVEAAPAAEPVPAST
EIF4G3, O43432, UniProt O43432, whole entry: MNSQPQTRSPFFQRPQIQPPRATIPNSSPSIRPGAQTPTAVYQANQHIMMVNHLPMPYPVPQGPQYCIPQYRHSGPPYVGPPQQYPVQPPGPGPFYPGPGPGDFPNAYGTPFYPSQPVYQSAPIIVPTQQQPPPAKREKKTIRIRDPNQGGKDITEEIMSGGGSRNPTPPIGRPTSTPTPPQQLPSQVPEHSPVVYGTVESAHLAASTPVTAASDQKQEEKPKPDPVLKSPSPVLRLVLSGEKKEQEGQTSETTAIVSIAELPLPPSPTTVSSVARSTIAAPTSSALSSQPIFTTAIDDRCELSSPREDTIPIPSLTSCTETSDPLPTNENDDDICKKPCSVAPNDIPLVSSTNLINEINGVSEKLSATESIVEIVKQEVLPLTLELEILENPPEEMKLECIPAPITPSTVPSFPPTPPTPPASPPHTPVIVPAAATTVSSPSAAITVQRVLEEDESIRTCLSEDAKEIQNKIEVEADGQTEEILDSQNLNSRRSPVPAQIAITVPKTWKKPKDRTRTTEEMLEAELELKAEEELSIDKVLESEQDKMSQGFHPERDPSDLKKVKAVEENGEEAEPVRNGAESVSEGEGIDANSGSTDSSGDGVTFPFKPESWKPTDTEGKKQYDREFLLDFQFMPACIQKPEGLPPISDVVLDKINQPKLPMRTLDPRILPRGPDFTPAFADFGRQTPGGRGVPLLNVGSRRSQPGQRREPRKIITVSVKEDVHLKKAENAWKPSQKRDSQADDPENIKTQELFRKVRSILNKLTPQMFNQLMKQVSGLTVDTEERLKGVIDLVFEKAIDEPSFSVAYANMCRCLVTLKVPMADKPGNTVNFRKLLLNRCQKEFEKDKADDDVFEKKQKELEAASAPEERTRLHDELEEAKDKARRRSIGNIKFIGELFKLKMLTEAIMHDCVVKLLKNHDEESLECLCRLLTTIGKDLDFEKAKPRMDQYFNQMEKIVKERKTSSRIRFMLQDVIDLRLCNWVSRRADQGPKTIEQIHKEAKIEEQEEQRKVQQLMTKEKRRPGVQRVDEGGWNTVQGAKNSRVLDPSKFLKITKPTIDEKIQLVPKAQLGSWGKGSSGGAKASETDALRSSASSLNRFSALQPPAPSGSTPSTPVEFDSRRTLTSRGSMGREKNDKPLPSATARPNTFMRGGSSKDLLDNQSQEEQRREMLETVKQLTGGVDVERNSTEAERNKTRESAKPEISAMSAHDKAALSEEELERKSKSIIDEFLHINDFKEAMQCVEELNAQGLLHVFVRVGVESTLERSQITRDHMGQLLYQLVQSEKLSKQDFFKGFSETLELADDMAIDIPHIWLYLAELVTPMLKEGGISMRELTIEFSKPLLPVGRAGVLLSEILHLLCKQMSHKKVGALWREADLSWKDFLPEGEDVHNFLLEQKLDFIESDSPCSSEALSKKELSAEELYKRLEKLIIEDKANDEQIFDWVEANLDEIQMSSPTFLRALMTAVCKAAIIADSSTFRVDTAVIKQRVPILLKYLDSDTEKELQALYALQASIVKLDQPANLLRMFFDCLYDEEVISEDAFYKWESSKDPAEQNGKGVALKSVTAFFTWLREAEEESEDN
FAM168B, A1KXE4, UniProt A1KXE4, whole entry: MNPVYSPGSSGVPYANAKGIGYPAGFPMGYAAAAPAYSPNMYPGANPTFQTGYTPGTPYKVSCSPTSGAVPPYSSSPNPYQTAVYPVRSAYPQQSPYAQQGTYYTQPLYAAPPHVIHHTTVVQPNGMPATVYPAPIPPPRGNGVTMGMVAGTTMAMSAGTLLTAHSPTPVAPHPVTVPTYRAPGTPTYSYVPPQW
NUTF2, P61970, UniProt P61970, whole entry: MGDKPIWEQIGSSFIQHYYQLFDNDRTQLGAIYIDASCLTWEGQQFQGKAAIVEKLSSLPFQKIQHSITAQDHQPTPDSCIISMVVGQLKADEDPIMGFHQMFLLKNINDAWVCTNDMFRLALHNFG
EIF1, P41567, UniProt P41567, whole entry: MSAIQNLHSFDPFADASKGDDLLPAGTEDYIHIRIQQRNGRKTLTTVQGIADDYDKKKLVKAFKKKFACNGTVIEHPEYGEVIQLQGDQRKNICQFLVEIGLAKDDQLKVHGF
NDUFA8, P51970, UniProt P51970, whole entry: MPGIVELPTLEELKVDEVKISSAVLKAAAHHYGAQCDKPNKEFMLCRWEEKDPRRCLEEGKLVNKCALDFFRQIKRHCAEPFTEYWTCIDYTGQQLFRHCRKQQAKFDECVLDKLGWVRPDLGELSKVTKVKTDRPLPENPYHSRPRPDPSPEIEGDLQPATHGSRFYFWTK
LANCL1, O43813, UniProt O43813, whole entry: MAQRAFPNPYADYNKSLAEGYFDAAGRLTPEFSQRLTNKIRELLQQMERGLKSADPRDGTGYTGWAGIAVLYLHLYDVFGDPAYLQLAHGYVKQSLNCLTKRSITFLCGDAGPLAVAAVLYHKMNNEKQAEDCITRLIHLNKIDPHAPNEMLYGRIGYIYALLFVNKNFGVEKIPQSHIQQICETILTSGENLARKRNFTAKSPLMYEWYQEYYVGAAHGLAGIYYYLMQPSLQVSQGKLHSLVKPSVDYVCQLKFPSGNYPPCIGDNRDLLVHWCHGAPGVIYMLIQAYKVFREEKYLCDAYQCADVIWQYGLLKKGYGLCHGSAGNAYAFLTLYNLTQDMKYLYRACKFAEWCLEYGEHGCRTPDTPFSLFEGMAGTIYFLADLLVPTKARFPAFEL
MAGOHB, Q96A72, UniProt Q96A72, whole entry: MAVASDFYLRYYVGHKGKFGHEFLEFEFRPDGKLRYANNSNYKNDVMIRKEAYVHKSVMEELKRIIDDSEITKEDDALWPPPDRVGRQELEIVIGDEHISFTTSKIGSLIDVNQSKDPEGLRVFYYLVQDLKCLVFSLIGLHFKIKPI
RBBP4, Q09028, UniProt Q09028, whole entry: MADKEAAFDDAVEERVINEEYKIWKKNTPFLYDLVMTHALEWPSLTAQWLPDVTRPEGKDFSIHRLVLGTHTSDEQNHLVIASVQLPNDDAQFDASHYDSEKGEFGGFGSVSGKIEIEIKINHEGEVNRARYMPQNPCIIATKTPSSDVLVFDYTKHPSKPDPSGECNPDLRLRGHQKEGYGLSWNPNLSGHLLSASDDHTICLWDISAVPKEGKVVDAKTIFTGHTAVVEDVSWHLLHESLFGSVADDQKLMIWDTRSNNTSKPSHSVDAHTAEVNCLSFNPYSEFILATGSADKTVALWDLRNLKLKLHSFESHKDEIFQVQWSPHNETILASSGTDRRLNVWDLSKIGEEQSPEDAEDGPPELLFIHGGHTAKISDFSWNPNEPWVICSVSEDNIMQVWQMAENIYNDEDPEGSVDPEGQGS
SF3B1, O75533, UniProt O75533, whole entry: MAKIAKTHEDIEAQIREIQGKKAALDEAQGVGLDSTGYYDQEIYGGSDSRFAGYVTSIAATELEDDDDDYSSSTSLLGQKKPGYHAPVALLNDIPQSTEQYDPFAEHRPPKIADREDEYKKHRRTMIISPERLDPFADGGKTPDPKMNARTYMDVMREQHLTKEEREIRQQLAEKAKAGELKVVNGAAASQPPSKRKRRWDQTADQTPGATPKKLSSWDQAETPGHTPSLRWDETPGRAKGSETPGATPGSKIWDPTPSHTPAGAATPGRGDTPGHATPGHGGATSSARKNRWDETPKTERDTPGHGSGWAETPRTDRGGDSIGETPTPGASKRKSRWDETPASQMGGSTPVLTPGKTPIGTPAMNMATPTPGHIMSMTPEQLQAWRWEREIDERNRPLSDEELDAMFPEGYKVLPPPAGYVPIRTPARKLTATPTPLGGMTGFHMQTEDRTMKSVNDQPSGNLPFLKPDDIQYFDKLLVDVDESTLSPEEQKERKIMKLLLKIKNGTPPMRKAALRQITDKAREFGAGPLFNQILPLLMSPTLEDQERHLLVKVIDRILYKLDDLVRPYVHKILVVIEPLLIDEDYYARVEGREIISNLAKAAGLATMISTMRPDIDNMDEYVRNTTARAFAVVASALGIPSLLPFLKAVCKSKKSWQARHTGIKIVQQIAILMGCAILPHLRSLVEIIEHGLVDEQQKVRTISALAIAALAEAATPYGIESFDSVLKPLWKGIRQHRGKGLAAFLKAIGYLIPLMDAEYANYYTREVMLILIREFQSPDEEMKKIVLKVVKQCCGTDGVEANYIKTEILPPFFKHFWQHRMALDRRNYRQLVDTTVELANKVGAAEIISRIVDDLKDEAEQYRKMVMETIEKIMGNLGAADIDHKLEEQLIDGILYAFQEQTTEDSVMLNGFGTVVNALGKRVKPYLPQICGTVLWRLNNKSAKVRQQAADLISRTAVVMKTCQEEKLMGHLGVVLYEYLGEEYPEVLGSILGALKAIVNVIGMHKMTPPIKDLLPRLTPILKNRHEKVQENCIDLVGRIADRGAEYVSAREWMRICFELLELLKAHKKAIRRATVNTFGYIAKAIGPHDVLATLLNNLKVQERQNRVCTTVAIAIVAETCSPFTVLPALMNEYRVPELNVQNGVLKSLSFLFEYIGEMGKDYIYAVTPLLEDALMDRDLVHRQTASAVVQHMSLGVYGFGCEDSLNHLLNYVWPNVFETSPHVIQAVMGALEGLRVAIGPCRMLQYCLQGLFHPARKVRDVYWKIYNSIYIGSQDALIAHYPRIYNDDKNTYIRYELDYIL
SMARCC1, Q92922, UniProt Q92922, whole entry: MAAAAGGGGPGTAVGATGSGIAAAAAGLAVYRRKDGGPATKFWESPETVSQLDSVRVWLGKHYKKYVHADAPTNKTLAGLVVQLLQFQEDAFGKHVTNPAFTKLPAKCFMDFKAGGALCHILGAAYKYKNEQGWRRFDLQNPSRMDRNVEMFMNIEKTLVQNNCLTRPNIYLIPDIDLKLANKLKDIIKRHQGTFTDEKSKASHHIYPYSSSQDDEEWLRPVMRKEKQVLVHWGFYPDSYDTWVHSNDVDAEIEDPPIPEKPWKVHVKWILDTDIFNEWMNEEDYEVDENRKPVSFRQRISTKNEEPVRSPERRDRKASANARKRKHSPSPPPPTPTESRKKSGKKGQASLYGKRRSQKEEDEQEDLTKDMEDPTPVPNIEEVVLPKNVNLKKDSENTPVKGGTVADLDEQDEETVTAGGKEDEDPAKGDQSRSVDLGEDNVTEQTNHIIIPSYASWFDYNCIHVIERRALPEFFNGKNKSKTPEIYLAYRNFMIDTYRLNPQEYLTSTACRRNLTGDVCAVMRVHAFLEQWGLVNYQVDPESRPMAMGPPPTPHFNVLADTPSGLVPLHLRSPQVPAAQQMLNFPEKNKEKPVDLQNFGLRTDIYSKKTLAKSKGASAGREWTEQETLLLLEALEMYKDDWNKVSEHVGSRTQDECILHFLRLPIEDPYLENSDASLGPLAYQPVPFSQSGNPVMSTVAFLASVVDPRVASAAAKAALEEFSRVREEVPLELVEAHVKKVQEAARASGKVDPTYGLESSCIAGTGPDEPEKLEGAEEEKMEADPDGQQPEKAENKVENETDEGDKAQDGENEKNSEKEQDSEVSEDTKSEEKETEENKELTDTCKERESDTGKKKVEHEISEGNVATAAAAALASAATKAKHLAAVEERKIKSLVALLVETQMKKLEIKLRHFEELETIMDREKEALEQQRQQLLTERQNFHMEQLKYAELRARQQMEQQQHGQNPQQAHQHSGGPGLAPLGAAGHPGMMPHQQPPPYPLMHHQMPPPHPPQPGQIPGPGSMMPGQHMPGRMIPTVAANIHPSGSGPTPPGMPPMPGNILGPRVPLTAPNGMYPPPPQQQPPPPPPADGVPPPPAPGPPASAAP

The list shows a part of the results. The list holds hits alone, and they repeat only in part.

What all share (experiment): PRISMA enrichment of interactor (LFQ) in peptide spot vs all other peptide spots (log2 fold change); higher = stronger / more specific binding of the interactor to the peptide
One assay deals with CKAP2L, Q8IYA6. The procedure:
(§1)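 PRISMA: 15-aa overlapping tiles (offset 8 aa) of 60 microproteins, plus SOS1/GLUT1 control peptides, were spot-synthesized on cellulose membranes in triplicate. Membranes were incubated with benzonase-treated HEK293T lysate, and bound proteins were identified by LC-MS/MS with LFQ. Enrichment is the log2 fold change of each protein in one spot versus all other spots. Only interactors passing the significance cutoff are listed.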

The next assay has as its target CLPP, Q16740. As for the experimental part:
as §1

For the next assay, the target named is CNPY2, Q9Y2B0. As for the experimental part: as §1
The next assay addresses CRABP2, P29373. The procedure: as §1
In another assay the target is CTPS1, P17812. As for the experimental part:
as §1

Another assay concerns the target DERPC, P0CG12. The procedure:
as §1

The target of another assay is EIF4G3, O43432. The procedure: as §1
Another assay concerns the target GLO1, Q04760. As for the experimental part:
as §1

The target of the next assay is GRB2, P62993. The procedure: as §1
For the next assay, the target named is H2AFV, Q71UI9. As for the experimental part:
as §1

For a further assay, the target named is HERC5, Q9UII4. The procedure:
as §1

The target in a further assay is MRPS7, Q9Y2R9. As for the experimental part: as §1
The target of a further assay is MYCBP2, O75592. As for the experimental part:
as §1

The target of the next assay is SH3GL1, Q99961. The procedure:
as §1

The next assay concerns the target YWHAG, P61981. The procedure:
as §1

For the next assay, the target named is ZC2HC1A, Q96GY0. The procedure:
as §1

The target in a further assay is COA7, Q96BR5. As for the experimental part:
as §1

A further assay deals with COPE, O14579. As for the experimental part:
as §1

Another assay concerns the target DDX50, Q9BQ39. The procedure:
as §1

A further assay has as its target FOXK1, P85037. The procedure:
as §1

The next assay concerns the target HNRNPAB, Q99729. The procedure: as §1
Another assay addresses HNRNPR, O43390. As for the experimental part:
as §1

Another assay addresses KIF2C, Q99661. The procedure:
as §1

The next assay addresses MCRIP1, C9JLW8. As for the experimental part: as §1
The target of a further assay is MFAP1, P55081. As for the experimental part:
as §1

The target of the next assay is MSH6, P52701. The procedure: as §1
The target in a further assay is ORC2, Q13416. As for the experimental part: as §1
A further assay addresses PCYT1A, P49585. As for the experimental part: as §1
A further assay deals with PDAP1, Q13442. As for the experimental part:
as §1

Another assay has as its target PELP1, Q8IZL8. The procedure:
as §1

A further assay concerns the target PUM1, Q14671. The procedure:
as §1

Another assay concerns the target RAB3GAP2, Q9H2M9. The procedure:
as §1

The target in another assay is SMC1A, Q14683. As for the experimental part: as §1
The target in a further assay is SRSF6, Q13247. The procedure:
as §1

A further assay addresses TALDO1, P37837. As for the experimental part: as §1
The target of a further assay is THRAP3, Q9Y2W1. As for the experimental part:
as §1

The target in another assay is TP53I11, O14683. The procedure:
as §1

The target of a further assay is TRMT112, Q9UI30. As for the experimental part:
as §1

The next assay addresses ZNF768, Q9H5H4. The procedure: as §1
Another assay addresses CNIH4, Q9P003. The procedure: as §1
The next assay deals with FAM168B, A1KXE4. The procedure: as §1
In a further assay the target is GPN2, Q9H9Y4. The procedure: as §1
A further assay concerns the target MRPL27, Q9P0M9. As for the experimental part:
as §1

For the next assay, the target named is NFS1, Q9Y697. The procedure: as §1
In the next assay the target is NOL11, Q9H8H0. The procedure:
as §1

The next assay addresses TMEM41B, Q5BJD5. The procedure: as §1
The target of the next assay is CHMP2A, O43633. As for the experimental part:
as §1

In a further assay the target is GATAD2A, Q86YP4. The procedure: as §1
The target of another assay is METTL26, Q96S19. As for the experimental part:
as §1

The next assay concerns the target NUTF2, P61970. The procedure:
as §1

In another assay the target is TSPYL1, Q9H0U9. As for the experimental part: as §1
The target in another assay is CHTOP, Q9Y3Y2. The procedure: as §1
The next assay has as its target DDX5, P17844. As for the experimental part:
as §1

In the next assay the target is EIF1, P41567. As for the experimental part:
as §1

In the next assay the target is MMS19, Q96T76. The procedure:
as §1

The next assay deals with NDUFA8, P51970. The procedure:
as §1

A further assay concerns the target ODF2, Q5BJF6. The procedure:
as §1

Another assay has as its target CHMP1A, Q9HD42. The procedure: as §1
A further assay concerns the target DDX27, Q96GQ7. The procedure:
as §1

A further assay addresses HSP90B1, P14625. As for the experimental part:
as §1

The target in another assay is LANCL1, O43813. As for the experimental part:
as §1

The next assay concerns the target LEO1, Q8WVC0. As for the experimental part: as §1
Another assay addresses LTF, P02788. The procedure: as §1
The target of another assay is MAGOHB, Q96A72. The procedure:
as §1

The target in a further assay is MRPL49, Q13405. As for the experimental part:
as §1

Another assay has as its target NAA35, Q5VZE5. The procedure: as §1
Another assay has as its target NDUFB10, O96000. The procedure: as §1
In a further assay the target is NEFM, P07197. The procedure:
as §1

The target of a further assay is POLR2E, P19388. As for the experimental part:
as §1

Another assay has as its target POU2F1, P14859. The procedure:
as §1

A further assay deals with RBBP4, Q09028. The procedure:
as §1

Another assay addresses RBBP6, Q7Z6E9. The procedure:
as §1

For a further assay, the target named is SCML2, Q9UQR0. The procedure: as §1
In another assay the target is SEPTIN7, Q16181. The procedure: as §1
Another assay has as its target SF3B1, O75533. As for the experimental part: as §1
The target in the next assay is SMARCC1, Q92922. As for the experimental part:
as §1

The next assay deals with SNU13, P55769. As for the experimental part:
as §1

For a further assay, the target named is UPF1, Q92900. As for the experimental part: as §1
A further assay addresses ZNF483, Q8TF39. The procedure: as §1

Consider MARPPPLPGLVGRRN, for which the “PRISMA enrichment of interactor (log2)” value was found to be 3.96 with CKAP2L, Q8IYA6; 4.52 with CLPP, Q16740; 4.57 with CNPY2, Q9Y2B0; 3.74 with CRABP2, P29373; 6.57 with CTPS1, P17812; 4.13 in the assay with DERPC, P0CG12. The “PRISMA enrichment of interactor (log2)” value is 4.56 with EIF4G3, O43432; 4.89 with GLO1, Q04760; 5.49 in the assay with GRB2, P62993; 5.73 in the assay with H2AFV, Q71UI9; 5.84 with HERC5, Q9UII4; 5.83 with MRPS7, Q9Y2R9. Moreover, the “PRISMA enrichment of interactor (log2)” value in the assay with MYCBP2, O75592 came out at 4.8; in the assay with SH3GL1, Q99961, 4.78; in the assay with YWHAG, P61981 it was 5.31; with ZC2HC1A, Q96GY0 it was 5.3.
With TMHWNDTRPAHFRIL [PVT1], the “PRISMA enrichment of interactor (log2)” value with COA7, Q96BR5 stood at 7.76; with COPE, O14579, 5.08; with DDX50, Q9BQ39 it was 5.28; with FOXK1, P85037 it was 8.3; with HNRNPAB, Q99729, 4.8; in the assay with HNRNPR, O43390, 6.34. Besides, the “PRISMA enrichment of interactor (log2)” value was found to be 5.58 with KIF2C, Q99661; 4.73 with MCRIP1, C9JLW8; 6.29 with MFAP1, P55081; 5.98 with MSH6, P52701; 4.84 with ORC2, Q13416; 5.34 with PCYT1A, P49585. The “PRISMA enrichment of interactor (log2)” value amounted to 5.81 in the assay with PDAP1, Q13442; 6.86 with PELP1, Q8IZL8; 5.54 with PUM1, Q14671; 5.87 with RAB3GAP2, Q9H2M9; 5.95 with SMC1A, Q14683; 5.82 with SRSF6, Q13247. Also, the “PRISMA enrichment of interactor (log2)” value came to 5.56 in the assay with TALDO1, P37837; 4.93 with THRAP3, Q9Y2W1; 7.9 in the assay with TP53I11, O14683; 6.5 in the assay with TRMT112, Q9UI30; 6.87 with ZNF768, Q9H5H4.
Turning to FSFSRPSHALFLFPF [LINC00881], the “PRISMA enrichment of interactor (log2)” value came out at 4.41 with CNIH4, Q9P003; 4.96 with FAM168B, A1KXE4; 7.93 with GPN2, Q9H9Y4; 6.6 with MRPL27, Q9P0M9; 4.23 in the assay with NFS1, Q9Y697; 3.8 with NOL11, Q9H8H0. Also, in the assay with TMEM41B, Q5BJD5, the “PRISMA enrichment of interactor (log2)” value came to 4.62.
In the case of MLVATGQCSRCFMFT [DANCR], the “PRISMA enrichment of interactor (log2)” value turned out to be 4.29 in the assay with CHMP2A, O43633; 8.85 in the assay with GATAD2A, Q86YP4; 4.87 in the assay with METTL26, Q96S19; 3.92 in the assay with NUTF2, P61970; 5.19 in the assay with TSPYL1, Q9H0U9.
Take GAGGWLVVGFLLCLF: the “PRISMA enrichment of interactor (log2)” value with CHTOP, Q9Y3Y2 worked out at 5.32; with DDX5, P17844 it was 4.59; with EIF1, P41567, 5.21; with MMS19, Q96T76, 4.58; in the assay with NDUFA8, P51970, 4.68; in the assay with ODF2, Q5BJF6, 5.38.
With AFSDDGAVSLSFQSR [SNHG16], the “PRISMA enrichment of interactor (log2)” value with CHMP1A, Q9HD42 was 4.37; with DDX27, Q96GQ7, 4.67; with HSP90B1, P14625, 5.63; in the assay with LANCL1, O43813, 4.07; with LEO1, Q8WVC0 it was 4.56; in the assay with LTF, P02788, 4.55. Besides, the “PRISMA enrichment of interactor (log2)” value with MAGOHB, Q96A72 came to 6.91; in the assay with MRPL49, Q13405, 4.72; with NAA35, Q5VZE5, 4.37; with NDUFB10, O96000, 4.74; with NEFM, P07197 it was 4.35; in the assay with PDAP1, Q13442, 4.97. The “PRISMA enrichment of interactor (log2)” value with POLR2E, P19388 is 5.18; with POU2F1, P14859 it was 4.03; in the assay with RBBP4, Q09028 it was 6.54; with RBBP6, Q7Z6E9, 4.45; with SCML2, Q9UQR0 it was 4.87; in the assay with SEPTIN7, Q16181, 4.17. The “PRISMA enrichment of interactor (log2)” value in the assay with SF3B1, O75533 stood at 4.79; in the assay with SMARCC1, Q92922 it was 4.72; with SNU13, P55769, 5.71; in the assay with UPF1, Q92900 it was 5.72; in the assay with ZNF483, Q8TF39, 5.85.
